Data as given in PubChem BioAssay AID1224830 (NIAID, 2016)

- Test: 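Host factors that control LPS-induced TNF expression in human macrophages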 (primary screen)
- Cells: human THP-1 monocytic leukaemia cells, TNF dual-luciferase reporter clone, PMA-differentiated to macrophage-like cells
- Reagent: siRNA pool against human genes, 50 nM
- Duration: LPS for 4 h, given about 3 days after siRNA transfection
- Challenge: bacterial LPS (TLR4 ligand), 10 ng/ml
- Read-out: 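TNF firefly reporter luminescence divided by renilla, normalised to the plate median, then turned into a robust z-score for each replicate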
- Reading the numbers: TNF reporter robust z-score: higher = stronger TNF reporter response to LPS
- Hit rule: 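a well is active when its z-score exceeds 2.8 or falls below -1.5; control wells carry no call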
Here is a random part of about 18,000 reagents. About 2,900 of all reagents (16%) were called active. 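Calls are made per well; low scores hint the gene aids the LPS response, high scores that it dampens it.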 The numbers tell different reagents against one gene apart. Repeated entries: four replicate wells of each siRNA pool.

gene,reagent,TNF reporter robust z-score,activity call
HMMR (hyaluronan mediated motility receptor),1,0.08,inactive
HMMR (hyaluronan mediated motility receptor),1,0.96,inactive
HMMR (hyaluronan mediated motility receptor),1,0.37,inactive
HMMR (hyaluronan mediated motility receptor),1,0.68,inactive
ALB (albumin),1,0.74,inactive
ALB (albumin),1,0.67,inactive
ALB (albumin),1,0.05,inactive
ALB (albumin),1,0.35,inactive
PPA1 (inorganic pyrophosphatase 1),1,-2.02,active
PPA1 (inorganic pyrophosphatase 1),1,-1.07,inactive
PPA1 (inorganic pyrophosphatase 1),1,-1.36,inactive
PPA1 (inorganic pyrophosphatase 1),1,-1.02,inactive
FCHSD1 (FCH and double SH3 domains 1),1,2.66,inactive
FCHSD1 (FCH and double SH3 domains 1),1,1.96,inactive
FCHSD1 (FCH and double SH3 domains 1),1,-0.34,inactive
FCHSD1 (FCH and double SH3 domains 1),1,0.87,inactive
KCNK13 (potassium two pore domain channel subfamily K member 13),1,-0.77,inactive
KCNK13 (potassium two pore domain channel subfamily K member 13),1,0.81,inactive
KCNK13 (potassium two pore domain channel subfamily K member 13),1,0.31,inactive
KCNK13 (potassium two pore domain channel subfamily K member 13),1,-0.25,inactive
EIF2B1 (eukaryotic translation initiation factor 2B subunit alpha),1,1.82,inactive
EIF2B1 (eukaryotic translation initiation factor 2B subunit alpha),1,0.23,inactive
EIF2B1 (eukaryotic translation initiation factor 2B subunit alpha),1,0.45,inactive
EIF2B1 (eukaryotic translation initiation factor 2B subunit alpha),1,0.2,inactive
TRPC4,1,1.78,inactive
TRPC4,1,1.22,inactive
TRPC4,1,-0.37,inactive
TRPC4,1,1.58,inactive
HHIPL1 (HHIP like 1),1,-1.63,active
HHIPL1 (HHIP like 1),1,-0.47,inactive
HHIPL1 (HHIP like 1),1,-1.03,inactive
TMEM92 (transmembrane protein 92),1,0.52,inactive
TMEM92 (transmembrane protein 92),1,-0.17,inactive
TMEM92 (transmembrane protein 92),1,0.33,inactive
TMEM92 (transmembrane protein 92),1,0,inactive
MRPL10 (mitochondrial ribosomal protein L10),1,-0.5,inactive
MRPL10 (mitochondrial ribosomal protein L10),1,-0.32,inactive
MRPL10 (mitochondrial ribosomal protein L10),1,0.41,inactive
MRPL10 (mitochondrial ribosomal protein L10),1,0.33,inactive
ABLIM1 (actin binding LIM protein 1),1,-0.45,inactive
ABLIM1 (actin binding LIM protein 1),1,0.05,inactive
ABLIM1 (actin binding LIM protein 1),1,-0.56,inactive
ABLIM1 (actin binding LIM protein 1),1,-0.4,inactive
LCE3A (late cornified envelope 3A),1,1.78,inactive
LCE3A (late cornified envelope 3A),1,1.85,inactive
LCE3A (late cornified envelope 3A),1,1.28,inactive
LCE3A (late cornified envelope 3A),1,1.18,inactive
PLCXD3,1,0.95,inactive
PLCXD3,1,1.62,inactive
PLCXD3,1,1.09,inactive
PLCXD3,1,2.04,inactive
CDC42BPG (CDC42 binding protein kinase gamma),1,0.26,inactive
CDC42BPG (CDC42 binding protein kinase gamma),1,1.09,inactive
CDC42BPG (CDC42 binding protein kinase gamma),1,0.96,inactive
CDC42BPG (CDC42 binding protein kinase gamma),1,1.4,inactive
COL6A5 (collagen type VI alpha 5 chain),1,-1,inactive
COL6A5 (collagen type VI alpha 5 chain),1,0.26,inactive
COL6A5 (collagen type VI alpha 5 chain),1,-0.28,inactive
COL6A5 (collagen type VI alpha 5 chain),1,-0.57,inactive
NEGR1 (neuronal growth regulator 1),1,0.17,inactive
NEGR1 (neuronal growth regulator 1),1,-0.41,inactive
NEGR1 (neuronal growth regulator 1),1,-1,inactive
NEGR1 (neuronal growth regulator 1),1,0.02,inactive
CCNY (cyclin Y),1,0.11,inactive
CCNY (cyclin Y),1,0.45,inactive
CCNY (cyclin Y),1,-0.62,inactive
CCNY (cyclin Y),1,-0.05,inactive
GUCD1 (guanylyl cyclase domain containing 1),1,-0.11,inactive
GUCD1 (guanylyl cyclase domain containing 1),1,-1.27,inactive
GUCD1 (guanylyl cyclase domain containing 1),1,-1.44,inactive
GUCD1 (guanylyl cyclase domain containing 1),1,-1.32,inactive
TRIM64C (tripartite motif containing 64C),1,-0.6,inactive
TRIM64C (tripartite motif containing 64C),1,0.16,inactive
TRIM64C (tripartite motif containing 64C),1,0.28,inactive
TRIM64C (tripartite motif containing 64C),1,-0.92,inactive
TRIM64C (tripartite motif containing 64C),2,0.84,inactive
TRIM64C (tripartite motif containing 64C),2,-0.61,inactive
TRIM64C (tripartite motif containing 64C),2,-0.54,inactive
TRIM64C (tripartite motif containing 64C),2,-0.1,inactive
